Measured values from PubChem BioAssay AID1259415 (National Center for Advancing Translational Sciences (NCATS), 2018).
The whole screen tested about 410,000 compounds, of which about 18,000 (4.4%) were called active. The inconclusive results got no clear call from the source; some entries with a clear call stand among them for comparison. Rule as the data show it: active = activity change below about -60%; inconclusive = no clear call, values can overlap the other calls; inactive = above about -39%.

Test: qHTS Assay for inhibitors of the human cytomegalovirus (HCMV)
Conditions: HFF cells, HCMV-luciferase reporter, 72 h; at 57.5 µM; stronger effect = lower value
Summary of the method: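 Steps: HFFs plated, 16 h 37C; compounds added; HCMV-luciferase added to MOI 1 PFU/cell; 72 h 37C; OneGlo reagent, 5 min room temperature; luminescence read, normalized to controls.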
% is scaled to controls: 0 for no effect and ±100 for the full control effect.

SMILES	activity change, negative = inhibition
Cc1ccc(C)c(-c2csc(N/N=C/c3ccco3)n2)c1	inconclusive: -50.3%
O=S(=O)(c1ccc(OCC(O)CN2CCC(Cc3ccccc3)CC2)cc1)N1CCOCC1 (stereo not given)	inactive: -39.9%
Cc1nc2ccccn2c1C(=O)NNC(=S)Nc1ccc(Cl)cc1	inconclusive: -54%
COCc1cc(Sc2ccc(Cl)cc2)nc(C)n1	inconclusive: -45.9%
O=C(O)CNC(=S)N(Cc1ccccc1)Cc1cccs1	inconclusive: -45.7%
CCOCCCn1c(=NC(=O)c2cccs2)c(C#N)cc2c(=O)n3ccccc3nc21	inactive: 15.9%
Cc1sc(-c2ccccn2)nc1OC(=O)c1ccc(F)cc1F	inconclusive: -57%
COc1ccc(C2SCC(=O)N2c2ccccc2)cc1 (stereo not given)	inactive: 14.3%
O=C(O)C1C2C=CC(C2)C1C(=O)N1CCOCC1 (stereo not given)	inconclusive: -48.8%
CCN(CC)S(=O)(=O)c1cc(NC(=O)C(C)N2CCc3ccccc32)ccc1C (stereo not given)	inconclusive: -40.7%
Cc1c(OCC(=O)C(C)(C)C)ccc2c(-c3ccccc3)cc(=O)oc12	inactive: -13.5%
CC1CCN(c2ccc3c(c2)S(=O)(=O)c2cccc(C(=O)NC4CC4)c2C3=O)CC1	active: -61.6%
COc1ccc2[nH]c3c(N4CC(C)OC(C)C4)ncnc3c2c1 (stereo not given)	inconclusive: -45.9%
CCCCNS(=O)(=O)c1ccc2nc(-c3cccnc3)cc(C(=O)NC(C)CC)c2c1 (stereo not given)	inconclusive: -48.2%
CCOc1ccc(C(C)NC(=O)Nc2ccc(F)cc2F)cc1 (stereo not given)	inconclusive: -50.6%
O=C(NCc1ccccc1)C(c1ccc(C(F)(F)F)cc1)n1c(=O)c(-c2ccco2)nc2ccccc21 (stereo not given)	inactive: 1.22%
c1ccc2c(c1)cc1ccc3cccc4ccc2c1c34	inconclusive: -45%
Cc1ccc(S(=O)(=O)N2CCC(n3c(C)nc4cccnc43)CC2)c(C)c1	inconclusive: -58.2%
CCOC(=O)CCc1c(C)nc(SCCCn2c(=O)[nH]c3ccccc32)c(C#N)c1C	inactive: -16%
CCC(=O)N1CCc2cc(S(=O)(=O)NCCc3ccc(S(N)(=O)=O)cc3)ccc21	inconclusive: -50.6%
CC(NC(=O)c1ccco1)C(c1cccs1)N1CCN(c2ccccc2F)CC1 (stereo not given)	inactive: 7.89%
O=C(CCCc1nc2ccccc2s1)N1CCN(c2ccccc2F)CC1	inconclusive: -44.9%
COc1cccc(NC(=O)CN(C)C(=O)c2cc(C3CC3)nn2-c2ccccc2)c1	inconclusive: -55.8%

SMILES	activity change, negative = inhibition
CC1(C)CNC(=O)c2sc(NC(=O)c3ccccc3)nc2C1	inactive: 124%
NN/C(=C\[N+](=O)[O-])Nc1ccccc1	inconclusive: -40.7%
Cc1ccc(SCCC(=O)Nc2ccccc2Br)cc1	inconclusive: -52.2%
CC(=O)Nc1nonc1-c1nc2ccccc2n1Cc1ccccc1Br	inconclusive: -56.8%
Nc1ccc(S(=O)(=O)c2ccccc2)nc1	inactive: -4.2%
CCN1C(=O)/C(=C/c2cccs2)S/C1=N\S(=O)(=O)c1ccc(C)cc1	inconclusive: -48.7%
C=CCn1c(SC(C)C(=O)NCCC2=CCCCC2)nc2ccccc2c1=O (stereo not given)	inconclusive: -48.8%
O=C(Nc1ccc(F)cc1)c1ccc(CSc2ccccc2)o1	inconclusive: -43.5%
CCC(C)(C)C1CCc2c(sc(NC(=O)c3ccccc3C(=O)O)c2C#N)C1 (stereo not given)	inconclusive: -44.9%
Cn1c(=O)c(C(=O)NNC(=O)c2cccc(Cl)c2)c(O)c2ccccc21	inconclusive: -54.2%
O=C1/C(=C/c2ccco2)SC(=S)N1C1CCS(=O)(=O)C1 (stereo not given)	inconclusive: -55.6%
CCC1CCCCN1C(=O)COC(=O)c1cc(C)nc2ccccc12 (stereo not given)	inconclusive: -52.8%
COc1ccc(-c2cc3nnc(-c4ccccc4)nc3s2)cc1	inactive: -4.72%
CN(C(=O)c1cc2nc(-c3ccco3)cc(C(F)(F)F)n2n1)C1CCCCC1	inconclusive: -40.6%
Cc1nc2ccccc2c(C)c1C(=O)c1ccccc1	inconclusive: -56.2%
Cc1ccc(-c2nc3cc(C(C)C)ccc3o2)cc1NC(=O)c1cc([N+](=O)[O-])ccc1N1CCOCC1	inconclusive: -49%
CCCCCn1ccc(=N)cc1	active: -72.8%
Cc1cccc(/C=C2\CCC(=C3SCCCS3)C2=O)c1	inconclusive: -41.5%
CCCCN(C(=O)c1cccc(S(=O)(=O)N(CC)c2ccccc2)c1)c1c(N)n(CC(C)C)c(=O)[nH]c1=O	inconclusive: 0%
Cc1ccc(Oc2ccc(C(=O)NCc3ccncc3)cc2)cc1	active: -82.7%
COc1cc(S(=O)(=O)NCc2ccc3c(c2)OCO3)ccc1F	inconclusive: -52.4%
Cc1csc(=NC(=O)c2ccccc2)n1Cc1ccco1	inconclusive: -41.3%
O=C(COc1ccccc1)Nc1ccc2oc(=O)ccc2c1	inconclusive: -44.2%

Laid out differently: 5 of the compounds above

| SMILES | activity change, negative = inhibition |
| --- | --- |
| COCc1cc(Sc2ccc(Cl)cc2)nc(C)n1 | inconclusive: -45.9% |
| Cc1sc(-c2ccccn2)nc1OC(=O)c1ccc(F)cc1F | inconclusive: -57% |
| COc1ccc(C2SCC(=O)N2c2ccccc2)cc1 (stereo not given) | inactive: 14.3% |
| Cc1ccc(SCCC(=O)Nc2ccccc2Br)cc1 | inconclusive: -52.2% |
| O=C(Nc1ccc(F)cc1)c1ccc(CSc2ccccc2)o1 | inconclusive: -43.5% |

Three compounds from above, sorted by heavy-atom count, falling:
SMILES	activity change, negative = inhibition
CCC(C)(C)C1CCc2c(sc(NC(=O)c3ccccc3C(=O)O)c2C#N)C1 (stereo not given)	inconclusive: -44.9%
Cc1ccc(Oc2ccc(C(=O)NCc3ccncc3)cc2)cc1	active: -82.7%
O=C1/C(=C/c2ccco2)SC(=S)N1C1CCS(=O)(=O)C1 (stereo not given)	inconclusive: -55.6%

(listing goes on)

SMILES	activity change, negative = inhibition
COCCOc1nc2c(c(=O)n(C)c(=O)n2C)n1Cc1cccc(OC)c1	inconclusive: -48.5%
Cc1c(C(=O)C(=O)NCc2cccs2)c2ccccc2n1C	inconclusive: -46.6%
CCOC(=O)NC1(NC2CCCCC2)Oc2ccccc2O1	inconclusive: -50.5%
O=C(NNC(=O)c1ccc[nH]1)Nc1cc(Cl)cc(Cl)c1	inactive: 12.5%
CC1C(=O)N(Cc2ccccc2)c2ccccc2N1C(=O)c1ccccc1 (stereo not given)	active: -73.6%
COc1ccc(OCC(=O)Nc2nonc2NC(=O)COc2ccc(OC)cc2)cc1	inconclusive: -43.4%
Cc1nc(C(=O)NCc2ccccc2)sc1C1(C)CC(c2cccnc2)=NO1 (stereo not given)	inconclusive: -51.2%
CCc1ccc(NC(=O)N2CCN(C(=O)c3nsc4ccccc34)CC2)cc1	inconclusive: 0%
C=CCNc1nc(N)c([N+](=O)[O-])c(N2CCCCCC2)n1	inactive: -20.5%
O=C(Nc1ccc(SC(F)F)cc1)c1ccc2nccnc2c1	active: -77.7%
CSc1nnc(C)c(/C=C/Nc2ccc(C)cc2)n1	inactive: -4.77%
CCN(CC)CC#CC(OC)(c1ccccc1)c1ccccc1	active: -63.1%
O=C(Nc1cccc2ncccc12)c1ccc([N+](=O)[O-])o1	active: -99.8%
CCOc1ccc(NC(=O)CN2CCN(CC(=O)Nc3ccc(C(N)=O)cc3)CC2)cc1	inconclusive: -41%
Cc1nc(N2CCN(C(=O)CCC(=O)O)CC2)c2c(C)c(C)sc2n1	inactive: 43.5%
O=C(NCCc1nc2ccccc2[nH]1)C1CCC(=O)N(CCc2cccc(F)c2)C1 (stereo not given)	inconclusive: -47.6%
CC1CCCC(C)N1C(=O)Cn1nnc(-c2ccccc2)n1 (stereo not given)	inconclusive: -48.7%
COc1ccc(C(=O)Nc2ccc([N+](=O)[O-])cn2)c(OC)c1	inconclusive: -44.1%
O=C1/C(=C\c2ccccc2)SC(=S)N1CCC(=O)N1CCCCC1CCO (stereo not given)	active: -86.2%
CCOC(=O)[C@H]1[C@H]2COc3ccc(C)cc3[C@@H]2N2C(=O)CN(Cc3ccccc3)C(=O)[C@@]12C	inactive: 44.5%
Cc1c(Cl)cnc(NC(=O)CSc2nncs2)c1Cl	inconclusive: -40.5%
CCc1c(C)sc(NC(=O)c2cc(-c3ccc(O)cc3)on2)c1C#N	active: -60.9%
CCOC(=O)N(C)[C@H]1C[C@H]2c3cc(-c4ccccc4C)ccc3CCN2C[C@H]1[C@H](C)O	active: -89.1%

SMILES	activity change, negative = inhibition
N#CC1=C(N)Oc2cc(N)ccc2C1c1cccc(Br)c1 (stereo not given)	active: -74.7%
C/C(=N\NC(=O)C1(C)CC1(Br)Br)c1ccc(NC(=O)c2ccc(C)o2)cc1 (stereo not given)	inconclusive: -40.6%
O=C(CCN1C(=O)C2C3C=CC(C3)C2C1=O)Nc1nccs1 (stereo not given)	active: -69%
Cc1noc(-c2ccccc2[N+](=O)[O-])c1-c1ccccc1[N+](=O)[O-]	inconclusive: -40.5%
CN(C)S(=O)(=O)c1ccc(C(=O)Nc2ccc3c(c2)CCC3)cc1	inactive: -33.9%
COc1ccccc1NC(=O)CSc1nnnn1-c1ccccc1F	inactive: -33.5%
CCOC(=O)c1c(C)[nH]c(C)c1C(=O)COC(=O)Cc1n[nH]c(=O)c2ccccc12	inconclusive: -45.1%
O=C(O)CCSc1ccc2ccccc2n1	inactive: 14.7%
CCOc1cc(CNc2ccc(Br)cc2)cc(Br)c1OCC(=O)NC(C)(C)C	inconclusive: -54.2%
O=C(Nc1ccc2nn(-c3ccc(Cl)cc3)nc2c1)c1cc2ccccc2o1	inactive: -3.97%
CC[n+]1c(/C=C/N(C)c2ccccc2)oc2ccc(Cl)cc21	inconclusive: -58%
CCCn1c(/C=C/c2cc[n+](C)cc2)nc2ccccc21	inconclusive: -55.3%
Cc1cc2c(Nc3ccccc3O)ncnc2s1	inconclusive: -43.2%
CCc1cccc(C)c1NS(=O)(=O)c1ccc(-c2cc(C)no2)s1	inconclusive: 0%
Cn1cc(C(=O)c2ccc(Cl)cc2Cl)cc1C(=O)N/N=C(\N)COc1ccc(Cl)cc1	inactive: 0%
CCc1ccc(Nc2ncc3c(n2)CC(c2ccc(OC)cc2)CC3=O)cc1 (stereo not given)	active: -64.1%
CCOC(=O)c1ccc(S(=O)(=O)NNC(=O)COc2ccccc2C)cc1	inactive: 21.7%
Cc1ccc(C)c(Nc2nn3c(=O)c4ccc(C(=O)NCc5cccs5)cc4nc3s2)c1	active: -98.8%
Cc1ccc(/C=N/NC(=O)C2COc3ccccc3O2)s1 (stereo not given)	active: -75.8%
CN(C1CCCCC1)S(=O)(=O)c1ccc2c(c1)c(=O)c(C(=O)NCc1ccc(Cl)cc1)cn2C	inactive: 7.75%
O=C(CN1C(=O)CC(c2ccc(F)cc2)=Nc2ccccc21)NCc1ccccc1Cl	active: -63.8%
